Results on 114 substances are retold here after the supplement of paper PMC5949888.

Most values lie at the floor of the assay. Slopes are relative: functional sequences can read slightly below zero.

The series concerns Saccharomyces cerevisiae PS128 hsf1 delta, HSF1(1-493) fusion. Nature of the series: growth estimate (transactivation domain function in HSF1 fusion, heat-shock survival) (a.u. (slope of normalised read count over time)); higher = stronger growth at 37°C, i.e. more transactivation activity. The conditions noted are these: library: random library.
As for LRPDRGPSC, the growth estimate was below -0.25. AGQLWSSRHAAINCLVSVA: the growth estimate is below -0.25. Next, GLLGAGTYTATTEE: below -0.25; AYNRIYYWAASRPSVKDPVE: below -0.25. Next, GSPAA: below -0.25; CIIRATEGRALSVVEPQITQ: below -0.25; VKLSSRNWVK: below -0.25. For the substance LGSNWPGTDCRGWYIRLY, the growth estimate was below -0.25. In the case of SRYMVRE, the growth estimate was below -0.25.

Turning to SVGVGSVSVGSWTW, the growth estimate was below -0.25. Next, HACSLEALERVGRHCRNPCY: below -0.25; IARCRWTNCRIESRNYMFQD: below -0.25. Next, VSAKAMRLHRVTLKSTIPTF: below -0.25; QRTCSLWTRTSPGAIS: below -0.25; QRAIYDEGVGLKSSPGVGSG: below -0.25. Under VKT stands below -0.25; under IVSTCYGY, below -0.25; under VWGFHSRRMFRTIIQRRIRC, below -0.25. As to FLLSRIGQSGRFTRVRAKC, the growth estimate is below -0.25. On to LWRDRGSSNCTGFEGC, for which the growth estimate is below -0.25. Next, AHPASSAVPLHVSRSRLRSP: below -0.25; VHLEPTVRVCILWSHSSGDP: below -0.25; NNWVLLL: -0.242. Next, TSLVGLSLWLPNLSKDYMYR: below -0.25. Next, HMTTHD: below -0.25. With ADAHPVPCYKTSLGRNKASA, the growth estimate was below -0.25. Under SKCLFKSSAASRPPGISRSK stands below -0.25; under PYLCLVSRDRTCNWLSYLSV, below -0.25. Under VYPARHGSGGRRTAVPGPLI stands below -0.25; under KWYLQSI, below -0.25. On to PGDYPAEMPSPYLPQLQPAL, for which the growth estimate was below -0.25.

Take VDDASWVFSQGPNFIACRSM: the growth estimate was below -0.25. Under SGGPVKHTVGRIDE stands below -0.25. Under MCLHVIQRRGVDQAVP stands below -0.25; under GSEIMPASSNGPWLMGVSS, below -0.25; under RDQKTHRQGEVVEVGYPCKV, below -0.25.

On to IELPRSACMLLWNTLTAWLI, for which the growth estimate was below -0.25. Under RICRRITNSNGRIRNLLSWA stands below -0.25; under RKCPSTGHSD, below -0.25; under HIQGLQTRSIEVRGGPRTPL, below -0.25. As for TKV, the growth estimate was below -0.25.

Take AIRVWFISAERSCSERPEQP: the growth estimate is below -0.25. Under TKVKNPRAGSSSSIVVRETR stands below -0.25. Under KDFVF stands below -0.25. Next, LLRVN: below -0.25.

Consider YRGVRIY, for which the growth estimate is below -0.25. Next, HPLSKGGWM: below -0.25. Under LGGPTCLQMSIRSFRNASAK stands below -0.25; under PTDRALL, below -0.25; under RSEEDLRRVISSP, below -0.25. With EPRLEG, the growth estimate is below -0.25. With DIRPAGSHRSKSSRGASPLY, the growth estimate is below -0.25. Regarding FSDS, the growth estimate is below -0.25.

As for YVRAD, the growth estimate is below -0.25. With LHRWLNRLSFGHSCI, the growth estimate is below -0.25.

On to IHQHIYLLGLATSSPAVPAL, for which the growth estimate is below -0.25. For the substance ITLDLG, the growth estimate is below -0.25. Under AFRSGAS stands below -0.25; under GGRRIYGWGRLGSKSTASPH, below -0.25; under PRSPGWLGLR, below -0.25. Next, KGSYDIATRVLRS: -0.241; CNGE: below -0.25; RLICIDRITG: below -0.25. Under LPGLLRRLRVRIASSNW stands below -0.25.

For HKLTGDGQFKDHDVSVLLLR, the growth estimate is below -0.25. Under TDQNVLRSRYSTPFSPIPRS stands below -0.25; under FKKRPSVY, below -0.25. For the substance EHGEDQESGIHNT, the growth estimate is below -0.25. Next, SKVWGRLAPHGAPKYIGCAL: below -0.25. For RAVSYRPPPSVRFSKQQW, the growth estimate was below -0.25. Turning to GVLSTDVTSSVTGRLKLWIE, the growth estimate is below -0.25. Next, WVCGCVDGRLKI: below -0.25. Next, LGIAITGVGKVVFEIEDNIM: below -0.25. Under RQTFSRGVNPLDSVLTRVHR stands below -0.25; under TQFRWRLANNAPLDLRLSPR, below -0.25. As for VRDALRGLAGTAGSDECASQ, the growth estimate is below -0.25. Under TSDDVRSSKSYTFNNCAKGP stands below -0.25; under TWKMRLRCVRVARPHTVSHA, below -0.25.

For SPQIRCDALPYGLGRHVAHG, the growth estimate is -0.245.

Take TVRSEL: the growth estimate was below -0.25.

Take VGNLRRKALPLASREQPVHL: the growth estimate is below -0.25.

Take PNPMASTKTHVGFSSDKSVG: the growth estimate was below -0.25.

On to PVVAWGQSYHRRYGLLSVGW, for which the growth estimate was below -0.25. Under EVLVLSVGNLAKI stands below -0.25; under DVSLFSALRECDCWMLSPRS, below -0.25. Next, PMELQSLRDVRESIQP: below -0.25. On to PCLPALPSFVMALQRHQALC, for which the growth estimate was below -0.25. In the case of IGSSIQLRVVAFLC, the growth estimate was below -0.25. Next, TDECSGNIFLTDTGHHRSSG: below -0.25; RFSNEFADEVMGIMGGLACP: below -0.25; LTYVAYPTAPTVGGSNVGSL: 0.0084. Next, VGNVEVSQTERFRMSPK: below -0.25; RRLYVDRLWSILAVWRGS: below -0.25; RVRGRLGVWEGTVLTSWF: below -0.25. Under VIIRPSFIHGGMCRLGACTR stands below -0.25.

For QRYELKLWAEDQASAPVLTL, the growth estimate is below -0.25.

Take YPIRTVSTEASQYVLARFPD: the growth estimate is below -0.25. Take GGLVPGSVSTRFEDSATVNS: the growth estimate was below -0.25. Under ICDG stands below -0.25; under ILAISLRVSRGKRRSPFGEW, below -0.25; under ALGRYKNSCQRARQIH, -0.245. Under AALPKSFVQAIDLQDRA stands below -0.25. Next, YRFTKR: below -0.25. Regarding YFDVGIHMAH, the growth estimate was below -0.25. As for QKAREVHGRGPKSSLRLSRL, the growth estimate was below -0.25. Next, PVVRCITEGLRGPHIGVARA: below -0.25; LCPIGCPVGISGPSS: below -0.25. Under TVFLMTHEG stands below -0.25; under AFPQEGD, below -0.25.

Regarding RPLQ, the growth estimate is below -0.25.

For the substance EPRPVLLGGIA, the growth estimate was below -0.25.

Regarding LAQVRVTQVIM, the growth estimate is below -0.25. Next, SRRWALHRPKQFVCYQLALL: below -0.25. Next, IMRDECYN: below -0.25.
